The assay has as its target human IL-11 (human) (UniProt P20809). Briefly: phage gradient-dilution ELISA, IL-11 coated.

Amino acid sequences for entries named in this document (tags omitted). Residues count along the entry.
UniProt P20809, residues 22-199: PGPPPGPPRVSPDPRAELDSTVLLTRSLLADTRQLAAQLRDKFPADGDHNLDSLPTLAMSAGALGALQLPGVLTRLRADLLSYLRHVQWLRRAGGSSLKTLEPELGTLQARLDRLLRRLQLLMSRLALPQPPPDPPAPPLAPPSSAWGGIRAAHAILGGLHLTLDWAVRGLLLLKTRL

These are yes or no findings as the source states them, for the method shown. Some binding calls cover weakened binding; strength is not graded here.

B1: MA-I phage monoclonal antibody (phage-displayed single-chain antibody) (scFv, V domains shown)
VH: EVKLEESGGGLVKPGGSLKLSCAASGFTFSDYYMFWVRQTPEKRLEWVATISDGGTYTYYPDSVKGRFTISRDNAKNNLYLQMTSLKSEDTAMYYCARDGGYVSSPEAMDYWGQGTSVTVSS
VL: DIVLTQSTSSLSASLGDRVTISCRASQDISNYLNWYQQKPDGTVKLLIYYTSRLHSGVPSRFSGSGSGTDYSLTISNLEQEDIATYFCQQGNTLPPTFGGGTKLEIK
With B1, the binding entry is recorded as “binds”.

B2: MA-IV phage monoclonal antibody (phage-displayed single-chain antibody) (scFv, V domains shown)
VH: EVQLEESGGGLVKPGGSLKLSCVASGFTFSDYYMFWVRQTPEKRLEWVATISDGGSYSYYPDSVKGRFTISRDNAKNNLYLQMSSLRSEDTAMYYCARDGGYISSPEAMDYWGQGTSVTVSS
VL: DIVLTQSTSSLSASLGDRVTISCRASQDISNYLNWYQQKPDGTVKLLIYYTSRLHSGVPSRFSGSGSGTDYSLTISNLEQEDIATYFCQQGNTLPPTFGGGTKLEIK
For the molecule B2, the binding result is listed as “binds”.

B3: MA-II phage monoclonal antibody (phage-displayed single-chain antibody) (scFv, V domains shown)
VH: EVKLEESGGGLVKPGGSLKLSCAASGFTFSDYYMFWVRQTPEKRLEWVATISDGGTYTYYPDSVKGRFTISRDNAKNNLYLQMTSLKSEDTAMYYCARDGGYVSSPEAMDYWGQGTSVTVSS
VL: DIVLTQSTSSLSASLGDRVTISCRASQDISNYLNWYQQKPDGTVKLLIYYTSRLHSGVPSRFSGSGSGTDYSLTISNLEQEDIATYFCQQGNTLPWTFGGGTKLEIK
Regarding B3, the binding entry is “binds”.

B4: MA-III phage monoclonal antibody (phage-displayed single-chain antibody) (scFv, V domains shown)
VH: EVKLEQSGAEVVKPGALVKMSCKASGYTFTSYWMHWVKQRPGQGLEWIGVIDPSDSYTTYNQKFKGKATLTVDTSSSTGYMQLSSLTSEDSAVYYCSQYGYDVNWYFDVWGAGTTVTVSS
VL: DIVMTQTTLSLPVSLGDQASISCRSSQSIVHSNGNTYLEWYLQKPGQSPKLLIYEVSNRFSGVPDRFSGSGSGTDFTLKISRVEAEDLGVYYCFQGSHVPWTFGGGTKLEIK
On to B4, for which the binding entry is “binds”.
